Results are given in words; binding and its absence hold for the method and conditions named. In cells and extracts the contact can be indirect. Some results given as binding are weak or reduced against the parent protein; the word gives no strength.

The chains behind the UniProt entries cited, without tags or fusion partners.
UniProt O43865: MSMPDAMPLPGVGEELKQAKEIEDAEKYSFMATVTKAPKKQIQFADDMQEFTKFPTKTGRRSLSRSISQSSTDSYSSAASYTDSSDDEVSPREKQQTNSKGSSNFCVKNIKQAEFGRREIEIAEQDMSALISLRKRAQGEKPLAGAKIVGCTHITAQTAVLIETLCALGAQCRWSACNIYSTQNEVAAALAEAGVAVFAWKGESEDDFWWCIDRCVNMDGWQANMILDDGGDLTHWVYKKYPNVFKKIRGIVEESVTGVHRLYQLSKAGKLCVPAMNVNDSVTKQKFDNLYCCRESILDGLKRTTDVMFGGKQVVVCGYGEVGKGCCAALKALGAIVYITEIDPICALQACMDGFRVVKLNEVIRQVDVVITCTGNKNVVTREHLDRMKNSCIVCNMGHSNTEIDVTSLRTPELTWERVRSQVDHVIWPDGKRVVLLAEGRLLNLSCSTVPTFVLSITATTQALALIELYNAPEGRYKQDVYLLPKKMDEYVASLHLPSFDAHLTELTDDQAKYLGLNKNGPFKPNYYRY

In paper PMC8956953 one finds binding data, which are given here for one substance.

For this test, the target named is endogenous AHCYL1/IRBIT of HEK293T cells (human (endogenous in HEK293T)) (UniProt O43865). Nature of the test: co-IP; HEK293T cells transiently transfected with HA-htau40, crosslinked with 2 mM dithiobis(succinimidyl propionate) for 30 min, nondenaturing lysis buffer; IP with anti-HA or anti-IRBIT, immunoblot. In general terms: Immunoblotting shows a protein as a band on a membrane.

Turning to “hemagglutinin (HA)-tagged htau40 overexpressed in HEK293T cells (from UniProt P10636-8 1-441)”, the binding result is “binds”.
